Reference: article PMC7139957
These are yes or no findings as the source states them, for the method shown. Binding seen in cells or lysates may run through a third protein. Some binding calls cover weakened binding; strength is not graded here.

By UniProt entry, the sequences of proteins in these tests, tags left out. Where a name states a change or a piece, a line headed by the entry shows the natural chain unless it says otherwise.
UniProt P05556: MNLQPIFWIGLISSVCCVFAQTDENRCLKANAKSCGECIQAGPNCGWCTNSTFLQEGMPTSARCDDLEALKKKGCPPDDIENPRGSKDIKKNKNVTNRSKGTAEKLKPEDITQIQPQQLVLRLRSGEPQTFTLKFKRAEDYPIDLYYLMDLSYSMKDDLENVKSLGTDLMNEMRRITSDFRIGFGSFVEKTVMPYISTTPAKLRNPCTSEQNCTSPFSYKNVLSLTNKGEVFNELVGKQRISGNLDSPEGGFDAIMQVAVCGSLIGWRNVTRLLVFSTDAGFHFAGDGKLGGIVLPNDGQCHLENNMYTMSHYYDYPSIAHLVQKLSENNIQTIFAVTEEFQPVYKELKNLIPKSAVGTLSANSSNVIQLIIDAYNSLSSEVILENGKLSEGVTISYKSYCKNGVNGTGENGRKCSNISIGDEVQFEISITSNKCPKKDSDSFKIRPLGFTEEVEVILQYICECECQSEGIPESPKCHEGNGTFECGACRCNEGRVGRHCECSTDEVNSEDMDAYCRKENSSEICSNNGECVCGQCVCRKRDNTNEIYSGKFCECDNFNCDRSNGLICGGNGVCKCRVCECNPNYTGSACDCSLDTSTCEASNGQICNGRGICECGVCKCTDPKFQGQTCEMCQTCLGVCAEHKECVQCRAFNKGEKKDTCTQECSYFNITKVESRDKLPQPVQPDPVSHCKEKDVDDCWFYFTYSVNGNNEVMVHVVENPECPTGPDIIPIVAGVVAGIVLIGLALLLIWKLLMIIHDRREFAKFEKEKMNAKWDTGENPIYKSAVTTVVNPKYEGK

Biological target: T1, trapping Trx1 C35S mutant (thioredoxin-1 with Cys-X-X-Ser active site) (UniProt P10599)
T1 sequence: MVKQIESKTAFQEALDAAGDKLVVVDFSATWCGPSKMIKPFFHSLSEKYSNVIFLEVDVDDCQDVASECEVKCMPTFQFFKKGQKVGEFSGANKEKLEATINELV
Assay: pull-down; intermediate trapping: His-tagged Trx1 C35S immobilized and reduced with 10 mM DTT on a His-Trap column; 10-20 mg protein of lysate of α7wt-transfected HT1080 cells loaded; eluted with 10 mM DTT; immunoblot with integrin β1 antiserum; only the target purified

With “integrin β1 subunit (from UniProt P05556 21-798) (receptor)” the binding was “binds”.
